The list shows a part of the results.
These sequences were tested against T1, OsSMF1 (Oryza sativa, UniProt Q6ZLB0 1-436) (assay: protein-binding microarray (RPBM); PBS, 2% BSA, 51.3 ng/ul salmon testes DNA, 50 uM zinc acetate, 200 nM TF, 25 C, 1 h; high values mean tight binding). Details: protein: recombinant; tags: N-terminal polyhistidine and DsRed monomer fusion (pET32a); chain copies: 2; label: CyDye5-dUTP incorporated in the synthesized complementary strand; 3' TTTTT single-stranded linker to array surface; dsDNA, one strand shown.
T1 sequence: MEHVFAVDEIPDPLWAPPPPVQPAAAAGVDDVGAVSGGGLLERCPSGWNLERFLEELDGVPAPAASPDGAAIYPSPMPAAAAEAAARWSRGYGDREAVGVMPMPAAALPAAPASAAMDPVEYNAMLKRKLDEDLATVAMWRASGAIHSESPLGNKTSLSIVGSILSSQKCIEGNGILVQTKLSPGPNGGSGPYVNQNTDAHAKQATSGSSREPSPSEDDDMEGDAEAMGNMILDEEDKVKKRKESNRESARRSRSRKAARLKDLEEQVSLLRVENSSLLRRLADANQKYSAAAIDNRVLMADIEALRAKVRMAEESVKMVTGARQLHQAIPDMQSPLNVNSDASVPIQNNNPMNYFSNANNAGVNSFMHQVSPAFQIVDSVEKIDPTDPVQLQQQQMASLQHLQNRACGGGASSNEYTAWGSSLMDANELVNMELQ
Outline: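 Ni–NTA purification followed expression in E. coli BL21-CodonPlus of transcription factors fused N-terminally to a polyhistidine tag and DsRed. At 200 nM in PBS with 2% BSA, salmon testes DNA and 50 µM zinc acetate, the protein was incubated for 1 h at 25 °C with a custom Agilent array that had been primer-extended with Cy5-dUTP and blocked with 2% BSA. After washing, the array was read on an Axon 4000B scanner. The binding signal is per-feature fluorescence intensity in arbitrary units.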

Row | Sequence | binding signal
1 | AACGAGCATCCTCCTCCGCGTGGGCCACACGCTGCGTTTACGGAGTCACCTAGTGCAG | 3640 fluorescence intensity (a.u.)
2 | TAATATTCAACATTTGGAATAAGATTCGGTTACTTATAAACGGAGTCACCTAGTGCAG | 18100 fluorescence intensity (a.u.)
3 | CAATGATAGGTGGTATGCTTTTGATGTGACAACAAATTGACGGAGTCACCTAGTGCAG | 3860 fluorescence intensity (a.u.)
4 | TCTTCCACCTCGGCGAGGAGGGTGGCGTCGTCCACTGCCACGGAGTCACCTAGTGCAG | 3330 fluorescence intensity (a.u.)
5 | GTGTTCAAAGACGTGCACTTCTCGTACCCGTCGAGGCCGGCGGAGTCACCTAGTGCAG | 3560 fluorescence intensity (a.u.)
6 | TCCTGAAGATGACTGGAACATGACTGTGGATCTGCATAAACGGAGTCACCTAGTGCAG | 3640 fluorescence intensity (a.u.)
7 | GGTCTAGTGGCCGTTATGTGTGCTGTCACGTCAGGCCGGCCGGAGTCACCTAGTGCAG | 4840 fluorescence intensity (a.u.)
8 | TGTTAGCTCCTCACCGTCACCGGTGTGCCTCGCGTCGTTCCGGAGTCACCTAGTGCAG | 3840 fluorescence intensity (a.u.)
9 | GCTACGACGACTAAACATGGCGTGTCAGCCAGTAAGCACCCGGAGTCACCTAGTGCAG | 4490 fluorescence intensity (a.u.)
10 | GGGCCTTCCGACGGCATCGTCATGGTTAGACCGGCGGGGACGGAGTCACCTAGTGCAG | 3240 fluorescence intensity (a.u.)
11 | TGGAAAGAGGAGGGCGGGGAGAGGACTGGGGAGGGCGGGGCGGAGTCACCTAGTGCAG | 8260 fluorescence intensity (a.u.)
12 | GGAGAGGAGGCGGAGGTGAAGGGGAAGGGGCAGGGGAGGACGGAGTCACCTAGTGCAG | 3720 fluorescence intensity (a.u.)
13 | GTGGATAAATCATACACCTGGACTCCAGTCATTGCACTGACGGAGTCACCTAGTGCAG | 3340 fluorescence intensity (a.u.)
14 | CTTGTGACAGATGCAGACATACGTATAGCCACGTACTCCTCGGAGTCACCTAGTGCAG | 7670 fluorescence intensity (a.u.)
15 | AACAAGTGGGTCCCACATCCGAGCCGAAGGAACGGAATCCCGGAGTCACCTAGTGCAG | 8120 fluorescence intensity (a.u.)
16 | TTGGATGTTTGCCGTGGACAAGTGCTAACTGTCAAAACCCCGGAGTCACCTAGTGCAG | 34900 fluorescence intensity (a.u.)
17 | TAGCGAGGTACCTATCATGACTTCGTCAGTCTCATATTTCCGGAGTCACCTAGTGCAG | 3340 fluorescence intensity (a.u.)
18 | GGTTTAAAACGACACTTATTTCTAACAAAACGTAATAATTCGGAGTCACCTAGTGCAG | 11400 fluorescence intensity (a.u.)
19 | ATGGGGAGGCGGCGAGTGGCCGGCGGGATAACGCACGACGCGGAGTCACCTAGTGCAG | 3470 fluorescence intensity (a.u.)
20 | GTACGACAACCACATACAACCCATGTCTGACTCAACTAGTCGGAGTCACCTAGTGCAG | 3540 fluorescence intensity (a.u.)
21 | GCATGCAGTTGACCTGGTCTCTCTGTCTGTATTTCAGCCGCGGAGTCACCTAGTGCAG | 3730 fluorescence intensity (a.u.)
22 | TGGTGGTGGGGAGGGTATTTATACCGGCTGACGAGGCGTGCGGAGTCACCTAGTGCAG | 8730 fluorescence intensity (a.u.)
23 | GAGATGCGGAGGGAGGGGAATGTTGGTGTGGCGGTGGCGACGGAGTCACCTAGTGCAG | 3910 fluorescence intensity (a.u.)

Given in markdown: entries from further up.

| Row | Sequence | binding signal |
| --- | --- | --- |
| 6 | TCCTGAAGATGACTGGAACATGACTGTGGATCTGCATAAACGGAGTCACCTAGTGCAG | 3640 fluorescence intensity (a.u.) |
| 7 | GGTCTAGTGGCCGTTATGTGTGCTGTCACGTCAGGCCGGCCGGAGTCACCTAGTGCAG | 4840 fluorescence intensity (a.u.) |

Reference: paper PMC7819943, “Rice protein-binding microarrays: a tool to detect cis-acting elements near promoter regions in rice”
